Source: PubChem BioAssay AID504467 (National Center for Advancing Translational Sciences (NCATS), 2011)
In all, about 330,000 compounds went through this assay and about 7,700 (2.3%) were called active. The shares of active, inactive and inconclusive entries below differ from those in the screen. Calls follow the shape of the dose curve; as a rule, active = well fitted inhibition curve with a large enough effect; inconclusive = small, poorly fitted or top-dose-only effect, or effect the other way; inactive = flat fitted curve, though single readings scatter. Where the call is inconclusive, the potency comes from a doubtful curve fit.
% is scaled to controls: 0 for no effect and ±100 for the full control effect; potency is read from the fitted curve at half-maximal effect.

Test: qHTS screen for small molecules that inhibit ELG1-dependent DNA repair in human embryonic kidney (HEK293T) cells expressing luciferase-tagged ELG1; also: nearly all actives have a fitted effect of over 55% in size
Details: HEK293T ELG1-luciferase reporter, luminescence, 16 h, DNA damage induced by 5-fluorouridine; activity change, negative = inhibition: at 46.1 µM (top of the series)
Method in brief: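 Reporter activity after DNA damage by 5-fluorouridine is monitored. Compound-treated cells incubate 16 hr at 37 °C, then ONE-Glo is added for 30 min before luminescence reading.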
With `CC(=O)c1c(C)[nH]c(C(=O)NCc2ccc(C)cc2)c1C` the Potency was inconclusive: 18.4 µM [activator, partial curve, poor fit].
With `CNc1ccccc(C(=O)/C=C/c2ccccc2OC)c1=O` the Potency was active: 23.1 µM.
In the case of `CC(C)CCN=Cc1c(O)n(-c2ccccc2)c(=O)c2ccccc12`, the Potency is reported as inconclusive: 23.1 µM [inhibitor, partial curve, poor fit].
With `O=C(Nc1nccs1)c1ccc(S(=O)(=O)N2CCOCC2)cc1` the Potency was “inactive”.
For `Cc1nc2cc(NC(=O)Nc3ccccc3Cl)ccc2n1C`, the Potency was inconclusive: 0.651 µM [activator, full curve].
With `N#C/C(C(N)=O)=C1/CCc2ccccc2N1` the Potency was inconclusive: 2.59 µM [inhibitor, partial curve, poor fit].
With `O=C1NCCOC(=O)[C@H](Cc2ccc(F)cc2)C/C=C\C[C@@H]1CC(=O)N(CCO)Cc1ccccc1` the Potency was inconclusive: 16.4 µM [inhibitor, partial curve].
With `CCOC(=O)C1CCCN(C(=O)c2cc(Nc3ccc(OC)cc3OC)nc3ccccc23)C1` (stereo not given) the Potency was inconclusive: 20.6 µM [inhibitor, single point].
For `COC(=O)CCc1c(C)c(C(=O)c2cc(OC)c(OC)c(OC)c2)c2ccccn12`, the Potency was inconclusive: 8.2 µM [inhibitor, partial curve].
For `O=C(Cc1ccccc1)N/N=C/c1cc(Br)cc(Cl)c1O`, the Potency was inconclusive: 6.51 µM [inhibitor, single point].
For `COc1cccc(NC(=O)Nc2cccn(Cc3ccccc3)c2=O)c1`, the Potency was “inactive”.
With `O=C(CSCc1ccccc1Br)Nc1ccccc1` the Potency was inconclusive: 16.4 µM [activator, single point].
For `CC12COC3(C(=O)Nc4ccc5ccccc5c4)CC1CCC32C` (stereo not given), the Potency was inconclusive: 10.3 µM [activator, partial curve].
In the case of `CN(C)CCNC(=O)c1ccccc1`, the Potency is reported as “inactive”.
With `COc1ccc(-c2nnc(SCC(=O)NC3CC3)o2)c(OC)c1` the Potency was inconclusive: 29.1 µM [activator, single point].
With `COc1ccc(-n2cc(-c3ccccc3)c3c(N4CC(C)OC(C)C4)ncnc32)cc1` (stereo not given) the Potency was inconclusive: 23.1 µM [inhibitor, single point].
In the case of `CC(=O)Nc1ccc(SCC(=O)c2cc(C)n(-c3ccccc3)c2C)cc1`, the Potency is reported as inconclusive: 2.06 µM [activator, full curve].
For `CN(C)C(=C(C#N)C#N)N1CCN(c2ccc(Cl)c(Cl)c2)CC1`, the Potency was inconclusive: 8.2 µM [inhibitor, partial curve, poor fit].
With `NS(=O)(=O)c1ccc(CCNC(=O)c2cc(-c3ccco3)nc3ccccc23)cc1` the Potency was inconclusive: 23.1 µM [inhibitor, single point].
For `Cc1cnc(C(=O)Oc2c(C)ccc(C)c2C)cn1`, the Potency was “inactive”.
In the case of `CCCOc1ccc(C2C(=O)N(C3CCCCCC3)CC(=O)N2Cc2ccco2)cc1OC` (stereo not given), the Potency is reported as inconclusive: 18.4 µM [inhibitor, partial curve, poor fit].
For `Cc1nn(-c2ccccn2)c2nc(-c3cccs3)cc(C(=O)NCc3ccco3)c12`, the Potency was inconclusive: 16.4 µM [inhibitor, partial curve].
With `COc1ccccc1Nc1ccc(NC(=O)c2cccc([N+](=O)[O-])c2C)cc1` the Potency was inconclusive: 20.6 µM [inhibitor, single point].
In the case of `CC(=O)N1c2ccc(S(=O)(=O)N3CCCC(C(=O)NCc4ccc(Cl)cc4)C3)cc2CC1C` (stereo not given), the Potency is reported as “inactive”.
For `Cc1nn(CC(=O)OCC(=O)Nc2ccccc2[N+](=O)[O-])c(C)c1[N+](=O)[O-]`, the activity change, negative = inhibition was inconclusive: 2.36% [activator].
With `CCOc1cc(C2C(C(=O)N3CCCCC3)=C(C)NC3=C2C(=O)CCC3)cc(Br)c1O` (stereo not given) the Potency was inconclusive: 25.9 µM [activator, single point].
In the case of `CNc1nc(Oc2ccc(C(=O)OC)cc2)nc(SC)n1`, the Potency is reported as inconclusive: 20.6 µM [activator, single point].
For `Cn1c(/C(C#N)=C/c2cccc(O)c2)nc2ccccc21`, the Potency was inconclusive: 14.6 µM [activator, partial curve].
For `COc1ccccc1C(=O)COC(=O)c1cc(=O)[nH]c2ccccc12`, the Potency was inconclusive: 25.9 µM [activator, single point].
In the case of `S=C(Nc1ccc(-c2nc3ccccc3[nH]2)cc1)Nc1cccnc1`, the Potency is reported as inconclusive: 4.11 µM [activator, full curve].
For `O=C(Cc1nc2ccccc2s1)c1ccc(O)cc1O`, the Potency was inconclusive: 2.06 µM [activator, full curve].
With `CCCn1c(=O)c(C(=O)NNC(=O)c2ccccc2[N+](=O)[O-])c(O)c2ccccc21` the Potency was “inactive”.
In the case of `COc1cc(C(=O)COC(=O)c2cc([N+](=O)[O-])ccc2N2CCOCC2)ccc1OC(F)F`, the Potency is reported as inconclusive: 25.9 µM [inhibitor, single point].
With `COC(=O)N/N=C/c1cn(CCCOc2ccccc2)c2ccccc12` the Potency was active: 16.4 µM.
In the case of `CCOc1ccc(NC(=O)CN(C)Cc2ccc3c(c2)OCO3)cc1S(=O)(=O)N1CCCC1`, the Potency is reported as “inactive”.
With `CC(=O)N(C)c1nnc(-c2ccccn2)s1` the Potency was inconclusive: 20.6 µM [activator, partial curve].
With `CC(C)(C)c1ccc(NC(=O)N2CCCN(c3ccc([N+](=O)[O-])cn3)CC2)cc1` the Potency was inconclusive: 23.1 µM [inhibitor, partial curve, poor fit].
With `CCCOC1(NC(=O)c2ccccc2)C(C)=CC(=O)C=C1C` the Potency was “inactive”.
With `Cn1c2ccccc2c(=O)c2cc(C#CC3(O)CCCCC3)ccc21` the Potency was inconclusive: 0.73 µM [activator, full curve, poor fit].
In the case of `CC(C)CNC(=O)CN1C(=O)NC(Cc2c[nH]c3ccccc23)C1=O` (stereo not given), the Potency is reported as “inactive”.
In the case of `COc1ccc(NC(=O)COc2ccc(-n3cnnn3)cc2)cc1OC`, the Potency is reported as “inactive”.
With `Cc1ccc(OCCCCN2CCCCC2)c(C)c1` the Potency was “inactive”.
In the case of `O=C(CCC1CCCCC1)Nc1nccs1`, the Potency is reported as “inactive”.
With `Cc1ccc2[nH]c(=O)c(CN(CCc3ccccc3)C(c3nnnn3Cc3ccco3)C(C)C)cc2c1` (stereo not given) the Potency was active: 18.3 µM.
In the case of `Cc1ccccc1Cn1c2ccccc2c2cnn(CC(=O)NCCCN3CCN(C)CC3)c(=O)c21`, the Potency is reported as inconclusive: 20.6 µM [activator, single point].
